Measurements: publication PMC7862700
The entries are a selection whose mix differs from that of the whole data set. For part of these data: At the low end of the ranking, values are background and their order means little. This is one part of the list. For part of these data: Construct or isoform of the protein are uncertain.

The chains behind the UniProt entries cited, without tags or fusion partners. Where a name states a change or a piece, a line headed by the entry shows the natural chain unless it says otherwise.
UniProt P50549: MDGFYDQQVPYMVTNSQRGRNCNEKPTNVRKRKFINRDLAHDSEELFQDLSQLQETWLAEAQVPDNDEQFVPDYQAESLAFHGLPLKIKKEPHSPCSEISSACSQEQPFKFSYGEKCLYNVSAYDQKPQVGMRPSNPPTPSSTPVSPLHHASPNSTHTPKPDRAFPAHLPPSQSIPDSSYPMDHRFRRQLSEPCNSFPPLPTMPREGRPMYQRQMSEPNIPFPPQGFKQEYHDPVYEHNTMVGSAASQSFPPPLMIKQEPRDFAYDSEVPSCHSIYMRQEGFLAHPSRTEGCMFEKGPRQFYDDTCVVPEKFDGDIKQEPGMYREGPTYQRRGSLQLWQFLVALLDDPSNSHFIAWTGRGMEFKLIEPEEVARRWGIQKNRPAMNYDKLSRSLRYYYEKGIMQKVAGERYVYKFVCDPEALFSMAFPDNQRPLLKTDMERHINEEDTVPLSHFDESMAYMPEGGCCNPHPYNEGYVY

The sequences below were run against T1, ETV4 (UniProt P43268) (assay: DAPPL (digital affinity profiling via proximity ligation, sequencing)). Details: 10 mM Tris-HCl pH 7.5, 50 mM NaCl, 1 mM DTT, 4% glycerol, room temperature, 30 min; GST-TFs on glutathione beads, 16-mer random dsDNA library, 0.1% …; high values mean tight binding; double strand, one strand shown; scale: fold enrichment (6-mer frequency, TF over GST control).
T1 sequence: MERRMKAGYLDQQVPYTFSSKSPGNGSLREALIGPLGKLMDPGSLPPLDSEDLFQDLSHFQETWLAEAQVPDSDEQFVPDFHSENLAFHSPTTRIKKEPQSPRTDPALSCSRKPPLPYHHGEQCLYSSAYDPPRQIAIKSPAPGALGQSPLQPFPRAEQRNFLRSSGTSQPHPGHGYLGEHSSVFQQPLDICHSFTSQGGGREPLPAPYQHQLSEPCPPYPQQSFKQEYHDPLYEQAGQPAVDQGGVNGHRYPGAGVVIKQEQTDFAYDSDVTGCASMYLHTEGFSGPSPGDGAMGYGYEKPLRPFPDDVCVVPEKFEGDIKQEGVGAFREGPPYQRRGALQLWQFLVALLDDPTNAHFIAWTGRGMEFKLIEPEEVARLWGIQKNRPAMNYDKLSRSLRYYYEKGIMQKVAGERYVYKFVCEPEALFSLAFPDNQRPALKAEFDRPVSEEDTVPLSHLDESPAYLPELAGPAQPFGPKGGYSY

Sequence | binding signal
GTGGCG | 0.861
AACCGT | 0.517
GGCGCT | 0.779
GGACTG | 0.697
TTCGGA | 0.746
TTAGAC | 0.871
TCGTAG | 0.851
ACAGTA | 0.948
GGAAGG | 0.836
GGCAAG | 0.699
GCATGG | 0.855
CACGGT | 0.916
ACGGGG | 0.72
AGTCAC | 0.783
GGTTGC | 0.912
GGGTGG | 0.794
CCAGAC | 0.652
CGGAAT | 0.901
GCAAGG | 0.778
CGGGGG | 0.466

Sequence | binding signal
AGAGTT | 0.767
GGCGGC | 0.591
GGGAAT | 0.816
ACAGGT | 0.694
AGGCCG | 0.461
GACGGA | 0.487
GGGGAG | 0.395
TCGGAT | 0.512
AGAGGA | 0.656
GAGGTT | 0.843
GACTAG | 0.761
CAGTCC | 0.627
CCATGT | 0.834
GTCATA | 0.773
GTCAGC | 0.766
TTGAGT | 0.651
AAGAGC | 0.857
GACCCT | 0.896
ACGAGT | 0.741

What follows are sequences tested against ETV1 (UniProt P50549) in the same assay as above. Details: 10 mM Tris-HCl pH 7.5, 50 mM NaCl, 1 mM DTT, 4% glycerol, room temperature, 30 min; GST-TFs on glutathione beads, 16-mer random dsDNA library, 0.1% …; high values mean tight binding; double strand, one strand shown; scale: fold enrichment (6-mer frequency, TF over GST control).

Sequence | binding signal
GTGGCG | 0.72
AACCGT | 0.531
GGCGCT | 0.783
GGACTG | 0.676
TTCGGA | 0.748
TTAGAC | 0.844
TCGTAG | 0.808
ACAGTA | 0.905
GGAAGG | 0.836
GGCAAG | 0.778
GCATGG | 0.947
CACGGT | 0.983
ACGGGG | 0.636
AGTCAC | 0.781
GGTTGC | 0.941
GGGTGG | 0.672
CCAGAC | 0.675
CGGAAT | 0.96
GCAAGG | 0.837
CGGGGG | 0.517

Sequence | binding signal
AGAGTT | 0.804
GGCGGC | 0.502
GGGAAT | 0.801
ACAGGT | 0.681
AGGCCG | 0.458
GACGGA | 0.488
GGGGAG | 0.424
TCGGAT | 0.507
AGAGGA | 0.653
GAGGTT | 0.833
GACTAG | 0.791
CAGTCC | 0.673
CCATGT | 0.778
GTCATA | 0.832
GTCAGC | 0.727
TTGAGT | 0.732
AAGAGC | 0.887
GACCCT | 0.865
ACGAGT | 0.801

These sequences were tested against T2, ERF (UniProt P50548) in the same assay as above. Details: 10 mM Tris-HCl pH 7.5, 50 mM NaCl, 1 mM DTT, 4% glycerol, room temperature, 30 min; GST-TFs on glutathione beads, 16-mer random dsDNA library, 0.1% …; high values mean tight binding; double strand, one strand shown; scale: fold enrichment (6-mer frequency, TF over GST control).
T2 sequence: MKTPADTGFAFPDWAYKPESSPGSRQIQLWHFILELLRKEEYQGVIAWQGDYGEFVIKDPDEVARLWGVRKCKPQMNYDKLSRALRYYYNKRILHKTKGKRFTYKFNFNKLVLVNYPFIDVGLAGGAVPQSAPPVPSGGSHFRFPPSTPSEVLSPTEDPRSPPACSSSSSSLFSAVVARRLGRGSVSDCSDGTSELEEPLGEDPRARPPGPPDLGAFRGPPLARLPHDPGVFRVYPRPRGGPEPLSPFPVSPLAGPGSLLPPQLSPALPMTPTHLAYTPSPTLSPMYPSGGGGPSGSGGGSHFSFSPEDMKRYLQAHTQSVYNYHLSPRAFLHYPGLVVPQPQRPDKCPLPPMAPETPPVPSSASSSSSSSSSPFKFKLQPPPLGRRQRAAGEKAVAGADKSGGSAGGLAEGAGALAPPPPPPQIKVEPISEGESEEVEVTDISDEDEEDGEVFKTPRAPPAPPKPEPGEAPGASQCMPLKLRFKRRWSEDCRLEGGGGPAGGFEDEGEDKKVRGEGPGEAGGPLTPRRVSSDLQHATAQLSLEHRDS

Sequence | binding signal
GTGGCG | 0.785
AACCGT | 0.577
GGCGCT | 0.782
GGACTG | 0.704
TTCGGA | 0.871
TTAGAC | 0.862
TCGTAG | 0.794
ACAGTA | 0.854
GGAAGG | 0.759
GGCAAG | 0.775
GCATGG | 0.941
CACGGT | 0.895
ACGGGG | 0.719
AGTCAC | 0.744
GGTTGC | 0.914
GGGTGG | 0.778
CCAGAC | 0.642
CGGAAT | 0.944
GCAAGG | 0.777
CGGGGG | 0.531

Sequence | binding signal
AGAGTT | 0.773
GGCGGC | 0.531
GGGAAT | 0.846
ACAGGT | 0.756
AGGCCG | 0.502
GACGGA | 0.501
GGGGAG | 0.458
TCGGAT | 0.539
AGAGGA | 0.645
GAGGTT | 0.807
GACTAG | 0.799
CAGTCC | 0.647
CCATGT | 0.911
GTCATA | 0.81
GTCAGC | 0.632
TTGAGT | 0.721
AAGAGC | 0.878
GACCCT | 1.05
ACGAGT | 0.761
